Holding throughout (assay): DAPPL (digital affinity profiling via proximity ligation, sequencing)
Holding throughout (conditions): 10 mM Tris-HCl pH 7.5, 50 mM NaCl, 1 mM DTT, 4% glycerol, room temperature, 30 min; GST-TFs on glutathione beads, 16-mer random dsDNA library, 0.1% …; high values mean tight binding; double strand, one strand shown; scale: fold enrichment (6-mer frequency, TF over GST control)

The target in assay [1] is T1, ETS1 (UniProt P14921).
T1 sequence: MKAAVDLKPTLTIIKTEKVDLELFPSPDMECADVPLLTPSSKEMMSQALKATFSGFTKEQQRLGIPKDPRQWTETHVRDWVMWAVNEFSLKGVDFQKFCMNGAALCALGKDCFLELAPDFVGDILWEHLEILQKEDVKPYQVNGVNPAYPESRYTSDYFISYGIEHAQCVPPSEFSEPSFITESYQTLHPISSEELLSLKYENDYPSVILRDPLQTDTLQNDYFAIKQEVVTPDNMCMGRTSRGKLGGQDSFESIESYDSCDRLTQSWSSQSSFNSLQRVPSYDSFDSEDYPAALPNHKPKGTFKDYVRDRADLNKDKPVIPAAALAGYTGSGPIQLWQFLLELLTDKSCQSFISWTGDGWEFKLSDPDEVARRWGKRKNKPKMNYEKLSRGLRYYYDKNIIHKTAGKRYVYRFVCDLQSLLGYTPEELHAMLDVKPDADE

Assay [2] deals with T2, SPDEF (UniProt O95238).
T2 sequence: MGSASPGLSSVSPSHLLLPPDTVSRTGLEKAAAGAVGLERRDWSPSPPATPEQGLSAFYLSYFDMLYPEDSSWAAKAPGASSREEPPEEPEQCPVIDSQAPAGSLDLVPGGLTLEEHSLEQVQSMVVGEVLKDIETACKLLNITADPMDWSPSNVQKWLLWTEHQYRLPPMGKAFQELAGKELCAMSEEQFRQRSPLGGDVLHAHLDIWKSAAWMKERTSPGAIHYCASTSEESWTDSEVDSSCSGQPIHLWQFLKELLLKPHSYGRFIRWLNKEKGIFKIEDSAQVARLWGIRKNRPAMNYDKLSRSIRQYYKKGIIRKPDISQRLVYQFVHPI

Assay [3] has as its target T3, GABPA (UniProt Q06546).
T3 sequence: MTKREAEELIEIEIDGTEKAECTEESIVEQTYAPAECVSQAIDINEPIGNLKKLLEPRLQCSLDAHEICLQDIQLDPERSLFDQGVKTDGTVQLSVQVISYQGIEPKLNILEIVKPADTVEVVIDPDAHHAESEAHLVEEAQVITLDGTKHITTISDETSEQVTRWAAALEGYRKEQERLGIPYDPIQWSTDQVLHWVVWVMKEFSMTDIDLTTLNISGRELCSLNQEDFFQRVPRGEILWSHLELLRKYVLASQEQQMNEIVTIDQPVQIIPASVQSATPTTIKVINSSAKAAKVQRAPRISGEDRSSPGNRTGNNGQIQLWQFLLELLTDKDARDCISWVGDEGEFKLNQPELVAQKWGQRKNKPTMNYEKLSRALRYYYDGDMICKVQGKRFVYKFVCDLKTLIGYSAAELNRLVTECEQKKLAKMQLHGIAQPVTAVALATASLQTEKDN

This is a selection; strong and weak results do not stand in their true shares. For part of these data: At the low end of the ranking the order means little. The list shows a part of the results. For part of these data: Construct or isoform of the protein are uncertain.

On to AAACGA, for which the binding signal in assay [1] worked out at 1.11; in assay [2], 1.03.
For GCCTTA, the figures for the binding signal in assay [1] and in assay [2] were 1.23 and 1.12, respectively.
On the same counts, the results for CTTAAG are 1.15 and 1.04.
On the same counts, the results for TCCTGT are 1.93 and 2.32.
The matching figures for TTCTGG: 1.34 and 1.23.
Regarding TCATCG, the binding signal in assay [3] was 0.942; in assay [1], 0.937; in assay [2], 0.916.
The matching figures for TCTGAG: 0.937, 0.954 and 0.911.
On to AACTAC, for which the values for the binding signal in assay [1] and in assay [2] were 1.4 and 1.48, respectively.
On the same counts, the results for GTACTG are 1.09 and 1.03.
Regarding GTGCCT, the binding signal was 0.981 in assay [3], 1.02 in assay [1] and 1.02 in assay [2].
In the case of GTTTGC, the values for the binding signal in assay [3], in assay [1] and in assay [2] were 1.04, 1.06 and 0.961, respectively.
On the same counts, the results for ATCGCG are 0.95, 1.08 and 0.856.
Regarding TTCACG, the binding signal in assay [1] was 1.44; in assay [2], 1.34.
The matching figures for ATGAGG: 0.944 and 0.903.
In the case of CGGGCT, the binding signal in assay [1] turned out to be 0.876; in assay [2], 1.07.
Take GTCACC: the binding signal came to 0.934 in assay [3], 0.976 in assay [1] and 0.9 in assay [2].
With ATGTTA, the binding signal was 1.29 in assay [1] and 1.26 in assay [2].
Regarding TACGAG, the binding signal was determined as 0.943 in assay [3], 0.906 in assay [1] and 0.896 in assay [2].
The matching figures for TCAAGA: 0.846, 0.868 and 0.863.
On to ACCTTC, for which the binding signal worked out at 1.9 in assay [1] and 2.02 in assay [2].
The matching figures for ACAGCC: 1.06 and 1.02.
On the same counts, the results for GCTGGT are 1.13 and 1.2.
On the same counts, the results for TGAAAT are 1.03 and 0.976.
On to TGTTCC, for which the binding signal in assay [1] came to 1.76; in assay [2], 2.03.
Regarding ATAGAT, the binding signal in assay [1] stood at 1.26; in assay [2], 1.27.
As to GCTAAC, the binding signal in assay [3] worked out at 0.983; in assay [1] it was 1.05; in assay [2], 0.982.
Take CCCGCT: the values for the binding signal in assay [3], in assay [1] and in assay [2] were 1.34, 1.43 and 1.32, respectively.
For AGAAGT, the binding signal is 1.03 in assay [1] and 0.955 in assay [2].
On the same counts, the results for ACTCCG are 1.48 and 1.59.
On to AAGGCC, for which the binding signal in assay [3] was 0.92; in assay [1] it was 0.923; in assay [2] it was 0.952.
Consider CCTCGG, for which the values for the binding signal in assay [1] and in assay [2] were 1.17 and 1.04, respectively.
Consider AGAGAT, for which the figures for the binding signal in assay [3], in assay [1] and in assay [2] were 0.933, 0.892 and 0.885, respectively.
On the same counts, the results for AGATTA are 0.991, 1.04 and 1.05.
GCCGAA: the binding signal worked out at 1.07 in assay [1] and 0.887 in assay [2].
The matching figures for TTGAGG: 1.03 and 0.997.
The matching figures for GCTAGA: 1.03 and 0.979.
With CGTTTG, the binding signal in assay [1] was found to be 1.1; in assay [2], 1.01.
As for TAGAAT, the values for the binding signal in assay [1] and in assay [2] were 1.12 and 1.07, respectively.
On the same counts, the results for TTTCGC are 1.08 and 0.998.
The matching figures for GCCCTC: 1.16 and 1.08.
The matching figures for TTGGTA: 1.14 and 1.23.
In the case of CATTGA, the binding signal was 0.956 in assay [1] and 0.881 in assay [2].
Turning to ATCTCA, the binding signal in assay [1] was 1.19; in assay [2] it was 1.07.
On the same counts, the results for CAACGA are 1.02 and 1.01.
On the same counts, the results for AGTAAA are 1.08 and 0.946.
Take CGGCTG: the binding signal in assay [1] stood at 0.859; in assay [2], 0.97.
The matching figures for CACAAA: 1.18 and 1.12.
Take CAAAGC: the binding signal in assay [1] came to 1.1; in assay [2], 1.06.
On to GCTTGT, for which the binding signal in assay [1] worked out at 1.08; in assay [2], 0.992.
For TAGCAG, the binding signal came to 0.975 in assay [1] and 0.964 in assay [2].
On the same counts, the results for TCCGAA are 1.34 and 1.29.
The matching figures for TGATTA: 1.07 and 1.01.
For TTCGAG, the results for the binding signal in assay [1] and in assay [2] were 1.39 and 1.19, respectively.
The matching figures for TGTTTT: 1.4 and 1.41.
Turning to ACTACG, the binding signal in assay [1] was determined as 1.19; in assay [2], 1.27.
For the sequence CTCCAA, the binding signal in assay [1] amounted to 1.34; in assay [2], 1.33.
On the same counts, the results for AACTAT are 1.43 and 1.42.
The matching figures for TTATGG: 1.33 and 1.26.
On the same counts, the results for AAAACG are 1.2 and 1.2.
Consider CACTGA, for which the values for the binding signal in assay [1] and in assay [2] were 1.07 and 0.936, respectively.
The matching figures for TCCGTC: 1.34 and 1.6.
On the same counts, the results for GTACGC are 0.978 and 0.98.
The matching figures for TCAGAT: 1.06 and 1.07.
With TGCAAG, the results for the binding signal in assay [1] and in assay [2] were 1.03 and 1.11, respectively.
For the sequence CTGCGC, the binding signal in assay [1] was determined as 1.39; in assay [2], 1.12.
On the same counts, the results for TAAACT are 1.19 and 1.01.
On the same counts, the results for CCAAAG are 0.888 and 0.894.
On the same counts, the results for AGTTCT are 1.06 and 0.988.
In the case of ACCTAG, the binding signal in assay [1] was 1; in assay [2], 0.917.
Consider ACTGGT, for which the results for the binding signal in assay [1] and in assay [2] were 1.1 and 0.988, respectively.
On the same counts, the results for ACGAGC are 0.966 and 0.903.
On the same counts, the results for AACACC are 1.03 and 1.15.
On the same counts, the results for CTAACT are 1.27 and 1.24.
Regarding TATCTT, the binding signal in assay [1] stood at 1.3; in assay [2], 1.32.
The matching figures for AAAGGC: 0.934 and 0.882.
On the same counts, the results for ACAGGA are 1.06 and 1.37.
For TGCTGG, the binding signal amounted to 1.01 in assay [1] and 1.15 in assay [2].
On the same counts, the results for AGCAAA are 1.01 and 0.973.
On the same counts, the results for CTCCCC are 1.47 and 1.28.
The matching figures for TCTGGT: 1.31 and 1.28.
For TCTAGG, the binding signal was found to be 1.05 in assay [1] and 0.947 in assay [2].
The matching figures for CTCACA: 1.38 and 1.33.
On the same counts, the results for AAAAAC are 1.34 and 1.23.
On the same counts, the results for TCGCCG are 1.16 and 1.01.
Consider TAATAC, for which the binding signal in assay [1] was determined as 1.19; in assay [2], 1.12.
As to TCCACT, the binding signal in assay [1] was 1.47; in assay [2] it was 1.37.
The matching figures for GCCTAG: 0.941 and 0.975.
As to AACTGT, the binding signal in assay [1] amounted to 1.03; in assay [2], 0.928.
On the same counts, the results for GATAAT are 1.05 and 0.958.
On the same counts, the results for TACAAT are 1.23 and 1.28.
On to GCCGAT, for which the binding signal in assay [1] amounted to 1.06; in assay [2] it was 0.96.
Consider GTTAAA, for which the binding signal in assay [1] was 1.07; in assay [2], 0.928.
For the sequence TCCATG, the binding signal in assay [1] is 1.16; in assay [2], 1.1.
On the same counts, the results for GATTAA are 0.97 and 1.08.
As to GTTACT, the binding signal was found to be 1.35 in assay [1] and 1.18 in assay [2].
On the same counts, the results for AATACT are 1.33 and 1.15.
For GGGGCT, the binding signal in assay [1] was 1.04; in assay [2], 0.989.
The matching figures for GCCTAC: 1.19 and 1.12.
Take TCACCG: the binding signal in assay [1] came to 1.06; in assay [2], 0.977.
The matching figures for CTAGAC: 0.958 and 0.925.
On the same counts, the results for TGTGGC are 1.04 and 0.993.
On the same counts, the results for CGCGTA are 0.991 and 0.892.
Consider CTTGTA, for which the binding signal is 1.38 in assay [1] and 1.45 in assay [2].
On the same counts, the results for CATAAC are 1.21 and 1.15.
As to ATGCTC, the binding signal in assay [1] and in assay [2] was 1.43 in each case.
For the sequence CATTTT, the binding signal in assay [1] worked out at 1.31; in assay [2] it was 1.06.
As for TTAGAT, the binding signal worked out at 1.12 in assay [1] and 1.08 in assay [2].
On the same counts, the results for ACTTGA are 1 and 0.943.
In the case of TGGCGA, the binding signal in assay [1] was determined as 1.01; in assay [2] it was 0.973.
